Patent publication US20080234336A1, “Synergistic Imazalil Combinations” (priority 2005, published 2008)
Values joined by “and” are separate entries in the source; they are usually repeats but may differ in a detail not shown here. Identical values can stand only once. At least one read-out could not be matched to a standard name with certainty.

Columns and labels:
Rhizoctonia solani = test: Poison plate assay (Experiment 1), MIC and Synergy Index; format: cell-based; conditions: PDA, 27° C., evaluation after two days, ppm total active ingredient
Text: (§1) Name of the primary compound: • imazalil (I) Name of the combination partners: • boscalid (II-a) • cyproconazole (II-b) • pyraclostrobin (II-c) • triflumizole (II-d) Stock solution: 1000 ppm in DMSO
(§2) • Concentrations of total active ingredient in the combinations: a series of concentrations increasing with steps of 1/3: 0.21-0.28-0.38-0.50-0.67-0.89-1.19-1.58-2.11-2.81-3.75-5.00-6.67-8.90-11.87-15.82-21.09-28.13-37.50-50.00 ppm • Culture medium: Potato Dextrose Agiar (PDA): 4 g potato infusion, 20 g bacto dextrose and 15 g bacto agar in 1 liter deionised water • Experimental set up: 24-well plates
(§3) • Inoculum: a spore/mycelium suspension (2 μl) or a piece of agar from the margin of an actively growing colony • Culture conditions: 27° C., 70% relative humidity, dark. • Evaluation: Evaluation after two days. Synergism between component (I) and one of the components (II) was determined by a commonly used and accepted method described by Kull F. C. et al. in Applied Microbiology, 9, 538-541 (1961) using the Synergy Index, which is calculated as follows for two compounds A and B: […]

Colletotrichum musae = test: as above; format: cell-based; conditions: PDA, 27° C., evaluation after two days, ppm total active ingredient
Text: as §1, §2, §3

SMILES: C=CCOC(Cn1ccnc1)c1ccc(Cl)cc1Cl (centres unmarked) [imazalil]
- MIC-values (minimum inhibitory concentration) in ppm (Rhizoctonia solani): 37.50 ppm and 66.66 ppm
- MIC-values (minimum inhibitory concentration) in ppm (Colletotrichum musae): 11.87 ppm
